Experimental findings from EP2284541A1, “Fluorescence-based imaging and analysis of cells and cellular components using lipophilic dyes with improved specificity, spectral property and photostability” (Max-Planck-Gesellschaft zur Förderung der Wissenschaften …, priority 2009, dated 2011) are described below.

The series can be described thus: Comparative spectral analysis: excitation efficiency and collected emission at given laser lines and filters. In kind it is physicochemical.

The structures appear in SMILES notation.

For the molecule `CC1=C2C=C3CCCCC3=[N+]2[B-](F)(F)n2c1cc1c2CCCC1` [LD540], under “BP475-515 nm emission filter”, the “collected fluorescence, of total emission” value is “negligible amount”. In addition, the “collected light, of total emission” value (LP560 nm filter) was 37%. Also, the excitation efficiency was 5% (excitation at 458 nm), 68% (excitation at 532 nm) and 93% (excitation at 543 nm).
